Source: publication PMC4316160
No constants are given. Whether binding was seen depends on the method and setting. For some of these results: Binding calls can cover weak binding; strength is not graded here. Blank lines part the entries; values can stand above or below the molecule they belong to.

Chains of the proteins cited; added tags and fusions are not shown. Lines headed by an entry give the natural chain unless they say otherwise; changes in a name come on top.
UniProt P62821: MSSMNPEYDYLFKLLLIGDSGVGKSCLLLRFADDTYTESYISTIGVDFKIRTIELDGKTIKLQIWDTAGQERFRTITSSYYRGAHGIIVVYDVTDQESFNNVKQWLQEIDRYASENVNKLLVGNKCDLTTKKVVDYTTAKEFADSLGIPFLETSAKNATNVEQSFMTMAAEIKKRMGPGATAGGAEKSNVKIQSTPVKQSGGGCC

Experiments:
Experiment in all cases: two-hybrid; pGBD-C1 vectors with CA/CN Rab mutants (ΔCys) or Arl8b(Q75L)ΔN and pAct2 vectors with Kif tail domains or SKIP RUN domain; yeast strain pJ69-4A; selection medium SC-AHLW, 30°C, 1 week
[1] = biological target: T1, SKIP-RUN (amino acid residues 1–282), pAct2 (human) (UniProt Q8IWE5)
T1 sequence: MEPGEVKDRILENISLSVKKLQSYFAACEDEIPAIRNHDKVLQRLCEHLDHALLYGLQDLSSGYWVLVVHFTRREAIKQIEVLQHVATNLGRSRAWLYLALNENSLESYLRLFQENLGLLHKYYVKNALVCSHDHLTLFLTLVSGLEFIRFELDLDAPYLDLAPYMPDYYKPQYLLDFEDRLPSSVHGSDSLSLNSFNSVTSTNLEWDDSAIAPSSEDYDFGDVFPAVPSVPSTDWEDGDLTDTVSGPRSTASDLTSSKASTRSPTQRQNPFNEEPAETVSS

[2] = biological target: T2, SKIP(Δ177–186)-RUN, pAct2 (human) (UniProt Q8IWE5)
T2 sequence: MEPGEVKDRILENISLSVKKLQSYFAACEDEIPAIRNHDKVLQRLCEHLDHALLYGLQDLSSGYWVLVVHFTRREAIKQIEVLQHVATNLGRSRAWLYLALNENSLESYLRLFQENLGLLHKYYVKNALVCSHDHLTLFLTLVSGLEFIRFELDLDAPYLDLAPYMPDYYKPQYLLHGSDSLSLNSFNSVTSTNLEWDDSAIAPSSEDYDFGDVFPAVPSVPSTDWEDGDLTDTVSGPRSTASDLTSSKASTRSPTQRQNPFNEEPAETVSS

[3] = biological target: constitutively active (CA) Rab1A mutant, Rab1A(Q70L)ΔCys (mouse) (UniProt P62821)

binding [1]: no binding
Molecule: constitutively negative (CN) Rab1A mutant, ΔCys (from UniProt P62821)

binding [2]: no binding | binding [1]: binds
Molecule: constitutively active (CA) Rab1A mutant, Rab1A(Q70L)ΔCys (from UniProt P62821)

binding [3]: binds
B1: Rusc2 RUN domain (domain or fragment, UniProt Q80U22 1026-1170)
chain: NVGHLVLKYLCPAVQAVLEDGLKAFVLDVIIGQRKNMPWSVVEASTQLGPSTKVLHGLYNKVSQFPELTSHTMRFNAFILGLLNIRSLEFWFNHLYNHEDIIQTHYQPWGFLRAAHTVCPGLFEELLLLLQPLALLPFSLDLLFQ
